Holding throughout (test): co-IP; SFB-tagged bait transiently expressed in HEK293T; lysate in NETN buffer, S protein beads 2 h at 4 °C, three washes, Western blot; also with mock- or PMA-treated cells (binding not affected)
On the technique in general: Immunoblotting shows a protein as a band on a membrane.

The chains behind the UniProt entries cited, without tags or fusion partners.
UniProt Q13164: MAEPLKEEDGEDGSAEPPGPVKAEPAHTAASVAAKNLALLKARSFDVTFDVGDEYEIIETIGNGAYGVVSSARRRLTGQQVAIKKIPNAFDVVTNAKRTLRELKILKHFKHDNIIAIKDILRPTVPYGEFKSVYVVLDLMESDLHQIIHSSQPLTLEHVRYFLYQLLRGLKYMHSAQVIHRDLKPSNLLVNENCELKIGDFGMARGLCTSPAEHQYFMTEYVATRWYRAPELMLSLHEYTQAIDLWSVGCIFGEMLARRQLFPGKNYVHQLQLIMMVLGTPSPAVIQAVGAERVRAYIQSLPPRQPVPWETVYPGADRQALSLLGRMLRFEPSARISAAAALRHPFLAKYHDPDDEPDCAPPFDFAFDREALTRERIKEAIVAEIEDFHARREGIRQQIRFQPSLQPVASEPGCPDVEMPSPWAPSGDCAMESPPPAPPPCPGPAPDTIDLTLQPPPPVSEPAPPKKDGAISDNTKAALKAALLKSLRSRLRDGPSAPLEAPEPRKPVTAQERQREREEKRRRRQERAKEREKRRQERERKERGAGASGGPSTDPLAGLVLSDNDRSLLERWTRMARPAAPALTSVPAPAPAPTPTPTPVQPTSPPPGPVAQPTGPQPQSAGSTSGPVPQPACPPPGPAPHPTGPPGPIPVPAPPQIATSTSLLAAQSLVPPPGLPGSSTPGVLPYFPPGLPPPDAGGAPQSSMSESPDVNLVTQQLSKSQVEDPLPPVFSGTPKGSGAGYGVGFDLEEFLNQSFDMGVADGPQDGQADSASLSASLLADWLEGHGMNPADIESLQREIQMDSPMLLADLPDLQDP
UniProt P27361: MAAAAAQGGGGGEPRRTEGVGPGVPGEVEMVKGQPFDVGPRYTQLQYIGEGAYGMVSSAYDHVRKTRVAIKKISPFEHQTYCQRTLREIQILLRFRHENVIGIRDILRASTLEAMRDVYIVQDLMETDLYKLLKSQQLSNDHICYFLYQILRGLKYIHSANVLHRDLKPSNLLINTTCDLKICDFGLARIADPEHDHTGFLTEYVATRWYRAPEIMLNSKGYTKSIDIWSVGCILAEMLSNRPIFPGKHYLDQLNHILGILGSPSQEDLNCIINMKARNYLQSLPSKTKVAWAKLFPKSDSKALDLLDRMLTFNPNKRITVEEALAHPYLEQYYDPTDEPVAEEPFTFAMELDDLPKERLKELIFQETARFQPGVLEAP

The target of experiment [1] is T1, N-terminal SFB-tagged DHPS (human) (UniProt P49366).
T1 sequence: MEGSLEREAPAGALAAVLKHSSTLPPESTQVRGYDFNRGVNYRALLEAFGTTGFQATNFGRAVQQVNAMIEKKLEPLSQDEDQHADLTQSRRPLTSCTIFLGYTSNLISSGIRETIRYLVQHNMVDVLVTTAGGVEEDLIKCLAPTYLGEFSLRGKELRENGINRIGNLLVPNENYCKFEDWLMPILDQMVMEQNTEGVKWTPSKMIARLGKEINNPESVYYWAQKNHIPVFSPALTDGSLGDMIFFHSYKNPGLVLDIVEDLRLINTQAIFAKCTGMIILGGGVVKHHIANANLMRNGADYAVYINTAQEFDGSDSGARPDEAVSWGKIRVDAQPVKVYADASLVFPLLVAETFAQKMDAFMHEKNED

The target of experiment [2] is T2, SFB-tagged full length (FL) DHPS (human) (UniProt P49366).
T2 sequence: T1 sequence

The target in experiment [3] is T3, C-terminal SFB-tagged DHPS (human) (UniProt P49366).
T3 sequence: T1 sequence

In a further experiment the target is control protein ERK5 (UniProt Q13164).

These are yes or no findings as the source states them, for the method shown. In cells and extracts the contact can be indirect. Some binding calls cover weakened binding; strength is not graded here. For some of these results: Where a sequence is shown, tags or fusion partners need not be part of it.

Among the data in article PMC7522278 are binding values, retold here.

For the molecule “endogenous ERK1 (from UniProt P27361 1-379) (enzyme)”, the binding entry in experiment [1], in experiment [2] and in experiment [3] was “binds” in each case.

B1: endogenous DHPS (enzyme, UniProt P49366 1-369)
chain: T1 sequence
Turning to B1, the binding entry with control protein ERK5 was “no binding”.
